# Primary screen of a compound library

The chains behind the UniProt entries cited, without tags or fusion partners.
UniProt E9BF75, entry or part of it: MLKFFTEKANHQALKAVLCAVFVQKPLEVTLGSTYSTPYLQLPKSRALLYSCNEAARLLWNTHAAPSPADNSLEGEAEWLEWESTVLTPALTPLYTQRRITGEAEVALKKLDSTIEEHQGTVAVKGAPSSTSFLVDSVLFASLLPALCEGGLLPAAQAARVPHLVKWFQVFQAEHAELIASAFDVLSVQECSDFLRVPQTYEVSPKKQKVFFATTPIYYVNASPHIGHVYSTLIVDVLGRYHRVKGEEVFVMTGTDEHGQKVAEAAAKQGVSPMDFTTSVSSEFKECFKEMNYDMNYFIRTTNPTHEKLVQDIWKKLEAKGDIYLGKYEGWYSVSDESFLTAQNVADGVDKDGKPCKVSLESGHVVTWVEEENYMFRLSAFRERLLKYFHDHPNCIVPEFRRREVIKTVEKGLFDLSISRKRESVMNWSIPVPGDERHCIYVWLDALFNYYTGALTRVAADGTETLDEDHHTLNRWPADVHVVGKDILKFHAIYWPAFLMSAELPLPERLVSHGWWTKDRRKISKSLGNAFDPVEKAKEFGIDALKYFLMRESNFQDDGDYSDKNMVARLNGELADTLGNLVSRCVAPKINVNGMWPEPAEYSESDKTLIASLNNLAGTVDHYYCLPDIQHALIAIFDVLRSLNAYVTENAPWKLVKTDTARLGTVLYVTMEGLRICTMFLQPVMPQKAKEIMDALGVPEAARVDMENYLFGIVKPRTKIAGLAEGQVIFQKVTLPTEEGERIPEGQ

The values are deposited in ChEMBL (CHEMBL3988442, “University of Dundee, Small-Polar-MMV Screening Library” (2021)).

A: 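Methionyl-tRNA synthetase (putative), Leishmania donovani (UniProt E9BF75). Primary screen of methionyl-tRNA synthetase; the read-out is not stated. The test concentration is not given. Values are per cent inhibition. Of about 68,000 compounds tested this way, about 24 (0.035%) reached 50% or more in at least one test.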
B: 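Assay on Mycobacterium tuberculosis, filed only as a heat shock assay from Cornell; the read-out is not stated. The concentration is filed as 10 mM, unlikely as a test dose, so the dose is not known. Direction is inferred from retests: higher values go with stronger inhibition. Size under these conditions: about 69,000 compounds, about 930 of them at 50% or above in at least one test.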

All values are in %.
The controls that fix the scale are not given in the record; negative values are as filed.
Compounds were drawn at random from those tested, without regard to their results.
A dash means the value is not listed here; it may have been measured.

SMILES,A,B
CCS(=O)(=O)N[C@@H]1CN(Cc2cc(C)on2)C[C@@H]2CCCO[C@@H]21,16.73%,-
COc1cccc2cc(CNCc3ccnc(N4CCOCC4)c3)oc12,4.575%,16.38%
CN1CCOC2(CCCN(C(=O)C3CCCCC3)C2)C1.O=C(O)C(F)(F)F (stereo unspecified),-,-5.587%
NC(=O)C1CCN(CC(=O)NCCc2c(F)cccc2F)CC1,-5.301%,20.57%
O=C(O)C(F)(F)F.[H][C@@]12CCN(c3cnccn3)C[C@]1([H])CN(C(=O)c1cncn1C)C2,-,-20.5%
Cc1cccnc1N1CC2(CCN(Cc3cnn(C)c3)C2)C1,12.89%,-
O=C(O)C(F)(F)F.O=C(O)C(F)(F)F.[H][C@@]12COC[C@]1(COc1cccnc1)CN(Cc1ccccc1OC)C2,-,-15.68%
CCOc1cc(/C=C/c2ncc(C(=O)NC)s2)ccc1OC,3.846%,4.904%
CC(C)c1nn(C)c(N(C)C)c1CNCCC(=O)N(C)C,7.874%,-
CS(=O)(=O)N1Cc2cnn(CC3CC3)c2C(COCC2CC2)C1.O=C(O)C(F)(F)F (stereo unspecified),-,-25.59%
O=C(C1CN(CC2CC2)CC12CCOCC2)N1CCOCC1.O=C(O)C(F)(F)F (stereo unspecified),-,0.6623%
Nc1cncc(C(=O)N2Cc3ccccc3OC3(CCOCC3)C2)c1,12.22%,-6.767%
O=C(c1ccco1)N1CCO[C@@H]2CN(Cc3nccs3)CC[C@@H]2C1,16.1%,-
CNC(=O)CN(C)c1cncc(OCC(C)C)n1,3.495%,-13.19%
O=C(O)C(F)(F)F.[H][C@@]12CCN(Cc3ccc(F)cc3)[C@]1([H])CC[C@H](C(=O)N1CCCO1)O2,-,-37.84%
CC(=O)N1CCC(c2nccnc2-c2ccc(F)cc2)CC1,13.54%,0.7178%
O=C(C1CCCC1)N1CC2(CCCN(C3COC3)C2)Cc2ccccc21 (stereo unspecified),9.143%,-29.46%
COCCC1(CO)CCCN(C(=O)c2ccc(C(C)C)[nH]c2=O)C1 (stereo unspecified),6.267%,-10.64%
Cc1cc(C)n(CC2CCCN2C(=O)CCCNc2ncccn2)n1 (stereo unspecified),14.29%,0.1656%
[H][C@@]12COC[C@]1(CNS(C)(=O)=O)CN(C(=O)c1ccncn1)C2,-,-9.127%
CCc1ccc(CN2CCC3(CC2)C(=O)N(C)CCN3CC2CC2)cc1.O=C(O)C(F)(F)F,-,-3.202%
CC(=O)Nc1ccc(CCC2(NC(=O)C3CC3)CCCCC2)cn1,19.37%,5.955%
CC(C)c1nnc2n1CCN(Cc1ccc3c(c1)OCO3)CC2,7.588%,-29.67%
CN(Cc1ccco1)Cc1cncc2c1CCN(S(C)(=O)=O)C2,10.68%,-
COCCN1CCC2(COCCN(Cc3ccc4c(c3)OCO4)C2)C1 (stereo unspecified),8.901%,-
OC1(CN2CCCC(Cn3cncn3)C2)CCCCC1 (stereo unspecified),-3.359%,-23.13%
CCOc1cccc(NC(=O)c2cc[nH]n2)n1,22.12%,6.104%
O=C(Cc1ccccc1F)N1CCCCC1c1ccn2ccnc2n1 (stereo unspecified),13.56%,-13.75%
c1cnn(CC2CCCCN2Cc2cn3ccsc3n2)c1 (stereo unspecified),11.04%,9.61%
Cc1nn(CC(C)C)c(N(C)C)c1CNCCS(C)(=O)=O,11.39%,-1.9%
N#Cc1ccc(N2CCC3(CC2)COCCN3Cc2cccnc2)cc1,16.3%,-
CC(C)NC(=O)COc1nc(C(C)C)no1,8.333%,-3.529%
Cn1cc(CN2CCc3c(nc(-c4ccccn4)[nH]c3=O)C2)cn1,10.8%,-205.6%
Cc1ccc(CN2CCC[C@]3(C(=O)O)CN(C)C[C@@H]3C2)s1,12.92%,-
[H][C@@]12CCC(=O)N(CCc3c[nH]cn3)[C@]1([H])CCN(c1ncc(F)cn1)C2,-,0.05768%
CCN1CC(COC(=O)c2cccc(Br)c2)CC1=O (stereo unspecified),16.8%,-28.43%
CC(C)c1cn(CC(=O)NC2CC(=O)N(CCc3ccccc3)C2)nn1 (stereo unspecified),13.02%,-13.8%
[H][C@@]12CCN(C(=O)CCc3csc(N)n3)C[C@@]([H])(CC1)N2C,-,-5.62%
Cc1nn(C)c(N2CCCN(C)CC2)c1CNC(=O)C(C)(C)C,14.1%,-5.106%
CN(C)C(=O)Cn1c2c(ccc1=O)CCN(Cc1cnn(C)c1)CC2.O=C(O)C(F)(F)F,-,6.799%
CSc1ccc(C)c(C(=O)Nc2c(C(N)=O)n[nH]c2C)c1,6.983%,-0.9497%
Cc1cc(=O)[nH]c(-n2nc(-c3cccs3)cc2N)n1,1.977%,94.15%
CC(C)n1nc2c(cc1=O)CN(CCOc1cccc(C#N)c1)CC2,15.3%,-11.79%
CNC(=O)[C@H]1C[C@@H]2CN(Cc3cccc(C)c3)C[C@H]1O2,12.09%,-
CCOC(=O)c1c(NC(=O)CN2CCN(C(C)=O)CC2)sc2c1CCC2,10.56%,0.2264%
Cc1cc(C[C@@H]2CCC[C@H]2NCc2c[nH]nc2-c2ccccc2)on1,10.59%,-
CC(NC(=O)CCOc1ccccc1Cl)c1nnc2n1CCC2 (stereo unspecified),13.07%,-17.96%
O=S(=O)(Cc1cccc(Cl)c1)CC(O)Cn1cccn1 (stereo unspecified),-5.415%,-8.122%
CCCc1noc(CCC(=O)NC(C)c2nnc3n2CCCCC3)n1 (stereo unspecified),9.294%,-4.52%